Reference: the supplement of paper PMC12823440, “Inhibitors supercharge kinase turnover through native proteolytic circuits” (Nature, 2025)
Counter-ions that a name gives are not always drawn. This is one part of the list. The calls rarely recur for the same compound in another form.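 Kinases were expressed as nanoluciferase fusions in K562 cells and luminescence was read every 4 h between 2 and 18 h as percent of control, DMSO set to 100% and a positive control to 0%. A time point counts as decreased when the signal drops significantly (2 sigma). The hit call is the authors' own, does not follow from the count of time points alone, and its rule is not shown.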

Amino acid sequences for entries named in this document (tags omitted). A change or cut given only in a name is not applied to a line headed by its entry.
UniProt P00519, whole entry: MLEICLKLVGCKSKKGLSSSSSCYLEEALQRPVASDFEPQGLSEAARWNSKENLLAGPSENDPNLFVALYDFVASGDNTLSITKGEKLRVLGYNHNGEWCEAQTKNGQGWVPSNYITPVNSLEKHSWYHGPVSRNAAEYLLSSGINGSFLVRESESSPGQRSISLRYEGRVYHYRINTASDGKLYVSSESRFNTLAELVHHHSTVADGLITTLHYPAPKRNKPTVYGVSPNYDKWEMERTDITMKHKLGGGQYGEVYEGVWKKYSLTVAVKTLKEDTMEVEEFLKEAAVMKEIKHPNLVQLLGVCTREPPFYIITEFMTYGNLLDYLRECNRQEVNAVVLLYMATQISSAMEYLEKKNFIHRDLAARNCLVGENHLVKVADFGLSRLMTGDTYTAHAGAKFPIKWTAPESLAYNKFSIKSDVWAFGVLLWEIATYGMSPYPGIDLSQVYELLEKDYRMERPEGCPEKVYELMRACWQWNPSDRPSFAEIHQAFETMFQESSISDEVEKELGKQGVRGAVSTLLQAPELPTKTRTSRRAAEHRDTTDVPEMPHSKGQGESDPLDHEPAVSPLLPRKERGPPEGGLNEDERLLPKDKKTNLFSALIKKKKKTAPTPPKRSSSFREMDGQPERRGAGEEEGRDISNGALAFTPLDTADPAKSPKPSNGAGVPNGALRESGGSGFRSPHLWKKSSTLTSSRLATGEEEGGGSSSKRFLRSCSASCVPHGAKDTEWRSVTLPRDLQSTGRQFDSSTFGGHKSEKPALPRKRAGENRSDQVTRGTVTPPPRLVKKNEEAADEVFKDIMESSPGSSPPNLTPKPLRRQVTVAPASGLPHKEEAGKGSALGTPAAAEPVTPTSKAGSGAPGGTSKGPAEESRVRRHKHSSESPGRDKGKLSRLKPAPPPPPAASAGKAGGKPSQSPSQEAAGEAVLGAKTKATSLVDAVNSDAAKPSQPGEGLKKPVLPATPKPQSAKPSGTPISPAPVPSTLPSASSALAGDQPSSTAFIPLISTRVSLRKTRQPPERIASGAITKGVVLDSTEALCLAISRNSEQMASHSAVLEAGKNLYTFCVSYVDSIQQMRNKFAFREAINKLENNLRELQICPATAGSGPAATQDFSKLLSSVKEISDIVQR
UniProt P31749: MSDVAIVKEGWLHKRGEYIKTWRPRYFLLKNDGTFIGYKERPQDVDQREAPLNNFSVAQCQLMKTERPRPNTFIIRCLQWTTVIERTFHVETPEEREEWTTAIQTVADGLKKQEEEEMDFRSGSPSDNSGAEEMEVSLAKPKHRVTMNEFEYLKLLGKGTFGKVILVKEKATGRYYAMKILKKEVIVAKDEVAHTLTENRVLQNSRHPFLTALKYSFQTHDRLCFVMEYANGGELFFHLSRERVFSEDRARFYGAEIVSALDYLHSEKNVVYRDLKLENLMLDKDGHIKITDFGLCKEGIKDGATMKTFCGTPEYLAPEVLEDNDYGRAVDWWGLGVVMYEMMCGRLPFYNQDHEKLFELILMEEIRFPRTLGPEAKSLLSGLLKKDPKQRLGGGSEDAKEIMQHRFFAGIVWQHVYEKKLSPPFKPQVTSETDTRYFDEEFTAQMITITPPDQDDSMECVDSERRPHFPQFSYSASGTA
UniProt Q9UM73: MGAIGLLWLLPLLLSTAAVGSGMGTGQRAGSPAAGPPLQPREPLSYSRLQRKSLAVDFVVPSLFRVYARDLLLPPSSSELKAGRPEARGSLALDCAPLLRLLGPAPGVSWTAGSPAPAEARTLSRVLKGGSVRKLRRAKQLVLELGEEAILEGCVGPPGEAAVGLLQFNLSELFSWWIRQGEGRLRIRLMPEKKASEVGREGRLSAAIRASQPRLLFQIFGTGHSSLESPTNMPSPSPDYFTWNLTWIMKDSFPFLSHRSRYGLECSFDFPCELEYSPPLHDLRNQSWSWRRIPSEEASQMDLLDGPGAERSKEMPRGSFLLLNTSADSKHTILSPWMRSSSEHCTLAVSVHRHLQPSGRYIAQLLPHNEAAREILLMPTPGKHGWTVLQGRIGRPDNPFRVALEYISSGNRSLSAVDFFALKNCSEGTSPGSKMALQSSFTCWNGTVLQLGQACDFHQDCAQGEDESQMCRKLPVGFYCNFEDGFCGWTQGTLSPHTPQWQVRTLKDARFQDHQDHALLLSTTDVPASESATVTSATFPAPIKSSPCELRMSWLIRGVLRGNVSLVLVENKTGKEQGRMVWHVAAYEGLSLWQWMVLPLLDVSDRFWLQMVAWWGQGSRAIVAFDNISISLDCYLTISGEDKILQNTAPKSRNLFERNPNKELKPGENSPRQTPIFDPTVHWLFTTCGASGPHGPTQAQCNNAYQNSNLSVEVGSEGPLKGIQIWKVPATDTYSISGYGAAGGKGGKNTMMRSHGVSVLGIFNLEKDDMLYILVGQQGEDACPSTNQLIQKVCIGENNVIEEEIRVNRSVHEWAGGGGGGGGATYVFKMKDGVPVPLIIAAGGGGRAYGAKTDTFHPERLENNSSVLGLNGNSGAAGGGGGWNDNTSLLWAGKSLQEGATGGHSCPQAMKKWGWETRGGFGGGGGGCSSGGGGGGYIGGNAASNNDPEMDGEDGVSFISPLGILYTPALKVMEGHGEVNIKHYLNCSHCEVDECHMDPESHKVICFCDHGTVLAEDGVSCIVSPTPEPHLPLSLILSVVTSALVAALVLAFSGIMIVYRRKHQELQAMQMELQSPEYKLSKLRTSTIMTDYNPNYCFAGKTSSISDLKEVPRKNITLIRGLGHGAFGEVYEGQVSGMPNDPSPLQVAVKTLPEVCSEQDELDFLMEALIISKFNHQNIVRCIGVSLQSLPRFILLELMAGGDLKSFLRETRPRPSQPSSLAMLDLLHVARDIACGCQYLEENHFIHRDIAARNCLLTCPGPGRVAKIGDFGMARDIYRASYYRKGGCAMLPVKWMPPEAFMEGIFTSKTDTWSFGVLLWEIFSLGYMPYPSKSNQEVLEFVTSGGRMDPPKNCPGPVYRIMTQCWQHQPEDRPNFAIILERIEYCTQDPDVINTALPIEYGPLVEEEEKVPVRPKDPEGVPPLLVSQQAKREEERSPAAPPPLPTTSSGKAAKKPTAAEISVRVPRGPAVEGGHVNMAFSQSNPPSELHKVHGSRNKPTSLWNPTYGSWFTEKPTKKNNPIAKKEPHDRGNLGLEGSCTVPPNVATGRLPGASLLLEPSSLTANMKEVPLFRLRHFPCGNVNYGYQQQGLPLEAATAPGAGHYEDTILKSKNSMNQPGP
UniProt P10398: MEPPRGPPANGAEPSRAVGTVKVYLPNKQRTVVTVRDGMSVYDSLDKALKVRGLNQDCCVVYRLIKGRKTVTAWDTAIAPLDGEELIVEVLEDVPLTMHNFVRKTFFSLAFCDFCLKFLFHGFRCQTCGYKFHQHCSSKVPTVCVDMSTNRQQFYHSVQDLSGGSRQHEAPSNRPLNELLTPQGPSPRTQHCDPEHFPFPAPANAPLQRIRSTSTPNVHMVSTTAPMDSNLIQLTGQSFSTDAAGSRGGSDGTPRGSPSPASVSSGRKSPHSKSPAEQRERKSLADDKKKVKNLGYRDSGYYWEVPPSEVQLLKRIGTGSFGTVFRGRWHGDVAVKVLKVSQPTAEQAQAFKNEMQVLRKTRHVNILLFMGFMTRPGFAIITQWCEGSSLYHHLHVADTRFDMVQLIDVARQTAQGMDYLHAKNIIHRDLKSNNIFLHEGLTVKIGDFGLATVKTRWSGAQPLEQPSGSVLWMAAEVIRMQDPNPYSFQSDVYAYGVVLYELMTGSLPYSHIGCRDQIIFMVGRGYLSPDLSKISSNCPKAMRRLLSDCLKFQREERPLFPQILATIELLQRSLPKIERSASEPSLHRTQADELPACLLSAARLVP
UniProt Q96GD4, whole entry: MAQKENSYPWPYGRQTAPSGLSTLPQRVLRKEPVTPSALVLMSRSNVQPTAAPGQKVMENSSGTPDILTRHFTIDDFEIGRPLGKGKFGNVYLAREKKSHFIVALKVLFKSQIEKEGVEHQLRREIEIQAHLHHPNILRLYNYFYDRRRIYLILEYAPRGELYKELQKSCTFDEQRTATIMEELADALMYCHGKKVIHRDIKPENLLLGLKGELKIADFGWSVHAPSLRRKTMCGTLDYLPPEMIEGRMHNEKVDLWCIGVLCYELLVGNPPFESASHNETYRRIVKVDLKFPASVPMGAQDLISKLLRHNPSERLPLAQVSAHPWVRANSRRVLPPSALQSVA
UniProt Q9UQB9: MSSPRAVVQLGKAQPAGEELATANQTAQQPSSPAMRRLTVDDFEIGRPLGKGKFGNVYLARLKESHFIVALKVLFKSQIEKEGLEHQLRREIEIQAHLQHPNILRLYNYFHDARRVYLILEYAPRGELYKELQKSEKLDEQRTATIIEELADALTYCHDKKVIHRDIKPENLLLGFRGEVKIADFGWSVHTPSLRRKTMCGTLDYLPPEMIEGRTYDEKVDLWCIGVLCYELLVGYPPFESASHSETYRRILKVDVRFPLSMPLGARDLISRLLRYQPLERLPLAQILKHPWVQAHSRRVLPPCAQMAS
UniProt P51451: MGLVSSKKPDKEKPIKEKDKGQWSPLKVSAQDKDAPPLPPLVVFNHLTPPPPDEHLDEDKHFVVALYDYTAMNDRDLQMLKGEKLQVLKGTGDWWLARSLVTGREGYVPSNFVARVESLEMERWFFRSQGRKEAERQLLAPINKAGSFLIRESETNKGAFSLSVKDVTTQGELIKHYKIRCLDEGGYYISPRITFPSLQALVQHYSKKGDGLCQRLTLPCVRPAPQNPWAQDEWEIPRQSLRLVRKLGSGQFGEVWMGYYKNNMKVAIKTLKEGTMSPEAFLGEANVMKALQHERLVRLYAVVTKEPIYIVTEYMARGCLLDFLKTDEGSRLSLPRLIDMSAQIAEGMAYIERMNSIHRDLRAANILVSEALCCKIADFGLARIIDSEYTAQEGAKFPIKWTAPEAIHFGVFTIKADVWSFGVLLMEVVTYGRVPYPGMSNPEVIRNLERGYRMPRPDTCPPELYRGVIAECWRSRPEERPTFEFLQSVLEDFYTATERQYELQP
UniProt P51813: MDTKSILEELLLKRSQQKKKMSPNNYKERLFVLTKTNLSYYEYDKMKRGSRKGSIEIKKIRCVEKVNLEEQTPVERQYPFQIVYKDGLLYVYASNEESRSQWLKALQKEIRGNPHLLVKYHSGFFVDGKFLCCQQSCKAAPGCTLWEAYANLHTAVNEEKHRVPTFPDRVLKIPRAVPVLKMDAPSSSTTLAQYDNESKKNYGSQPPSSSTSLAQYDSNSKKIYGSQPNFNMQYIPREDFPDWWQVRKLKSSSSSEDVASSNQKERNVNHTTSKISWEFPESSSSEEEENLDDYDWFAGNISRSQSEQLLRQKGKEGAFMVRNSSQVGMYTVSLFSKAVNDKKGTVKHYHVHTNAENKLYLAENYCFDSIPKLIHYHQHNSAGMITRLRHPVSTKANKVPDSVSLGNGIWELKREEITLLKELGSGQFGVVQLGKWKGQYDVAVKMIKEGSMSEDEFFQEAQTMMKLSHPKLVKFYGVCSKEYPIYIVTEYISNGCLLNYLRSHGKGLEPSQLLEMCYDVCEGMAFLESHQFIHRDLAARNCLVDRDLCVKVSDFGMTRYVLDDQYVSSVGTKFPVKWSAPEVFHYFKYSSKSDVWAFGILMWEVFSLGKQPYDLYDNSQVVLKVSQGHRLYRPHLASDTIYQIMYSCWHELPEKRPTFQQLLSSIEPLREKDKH
UniProt P15056, whole entry, looked up: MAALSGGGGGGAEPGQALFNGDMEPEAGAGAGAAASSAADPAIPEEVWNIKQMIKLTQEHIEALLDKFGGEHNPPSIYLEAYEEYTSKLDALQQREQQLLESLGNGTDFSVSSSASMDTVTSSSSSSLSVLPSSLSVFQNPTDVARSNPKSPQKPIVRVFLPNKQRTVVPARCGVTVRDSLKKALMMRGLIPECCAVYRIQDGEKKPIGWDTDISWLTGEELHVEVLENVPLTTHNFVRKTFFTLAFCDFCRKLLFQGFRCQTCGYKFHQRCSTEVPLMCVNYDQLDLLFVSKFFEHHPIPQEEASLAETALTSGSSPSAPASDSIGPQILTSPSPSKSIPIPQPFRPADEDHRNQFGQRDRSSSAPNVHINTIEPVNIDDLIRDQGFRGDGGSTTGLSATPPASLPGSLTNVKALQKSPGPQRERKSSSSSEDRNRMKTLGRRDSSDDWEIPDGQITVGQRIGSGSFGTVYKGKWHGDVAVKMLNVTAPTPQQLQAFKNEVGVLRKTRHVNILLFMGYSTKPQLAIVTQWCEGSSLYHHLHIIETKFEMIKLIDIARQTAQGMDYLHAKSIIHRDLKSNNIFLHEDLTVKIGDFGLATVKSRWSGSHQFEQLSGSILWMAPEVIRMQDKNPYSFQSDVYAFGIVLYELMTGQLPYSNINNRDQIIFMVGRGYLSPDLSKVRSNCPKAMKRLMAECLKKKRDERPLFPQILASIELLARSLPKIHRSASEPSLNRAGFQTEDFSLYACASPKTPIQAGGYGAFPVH

Legend:
Assay in all cases: kinase-Nluc reporter destabilization hit call (1 = scored as downregulated) (binary); higher = compound decreases kinase abundance
Details in all cases: K562; 2-18 h
ABL1 = ABL1 (UniProt P00519)
AKT1 = AKT1 (UniProt P31749)
ALK = ALK (UniProt Q9UM73)
ARAF = ARAF (UniProt P10398)
AURKA = AURKA (UniProt O14965)
AURKB = AURKB (UniProt Q96GD4)
AURKC = AURKC (UniProt Q9UQB9)
BLK = BLK (UniProt P51451)
BMX = BMX (UniProt P51813)
BRAF = BRAF (UniProt P15056)

Measured: kinase-Nluc reporter destabilization hit call

Cn1cc(-c2cc(Oc3cc(F)c(NC(=O)C4(C(=O)Nc5ccccc5)CC4)cc3F)ccn2)cn1 (2.5 µM)
inactive: ABL1 = 0 | AKT1 = 0 | ALK 0 | ARAF 0 | AURKA 0 | AURKB 0 | AURKC 0 | BLK 0 | BMX 0 | BRAF 0

Cc1cc(C(=O)Nc2nc3cccc(Cl)c3n2[C@@H]2CCCCN(C(=O)/C=C/CN(C)C)C2)ccn1 [Nazartinib] (10 µM)
inactive: ABL1 = 0 | AKT1 = 0 | ALK 0 | ARAF 0 | AURKA 0 | AURKB 0 | AURKC 0 | BLK 0 | BMX 0 | BRAF 0

COc1cc(-c2cc(OP(=O)(O)O)cc(-c3cc(OC)c(OC)c(OC)c3)c2)cc(OC)c1OC [Stafia-1] (10 µM)
inactive: ABL1 = 0 | AKT1 = 0 | ALK 0 | ARAF 0 | AURKA 0 | AURKB 0 | AURKC 0 | BLK 0 | BMX 0 | BRAF 0

Nc1ncc(-c2ccnc(Nc3ccncc3)n2)c(CC2CC2)n1 (10 µM)
inactive: ABL1 = 0 | AKT1 = 0 | ALK 0 | ARAF 0 | AURKA 0 | AURKB 0 | AURKC 0 | BLK 0 | BMX 0 | BRAF 0

O=c1[nH]ccc2nc(-c3ccc(CN4CCC(c5nc(-c6ccccn6)n[nH]5)CC4)cc3)c(-c3ccccc3)cc12 (10 µM)
inactive: ABL1 = 0 | AKT1 = 0 | ALK 0 | ARAF 0 | AURKA 0 | AURKB 0 | AURKC 0 | BLK 0 | BMX 0 | BRAF 0

Cc1cc(-n2c(=O)ccc3c[nH]c4nccc-4c32)ccc1F (10 µM)
inactive: ABL1 = 0 | AKT1 = 0 | ALK 0 | ARAF 0 | AURKA 0 | AURKB 0 | AURKC 0 | BLK 0 | BMX 0 | BRAF 0

COc1cc2c(cc1O)C[C@H]1c3cc(O)c(OC)cc3CC[N@@+]1(C)C2 [Phellodendrine] (10 µM)
inactive: ABL1 = 0 | AKT1 = 0 | ALK 0 | ARAF 0 | AURKA 0 | AURKB 0 | AURKC 0 | BLK 0 | BMX 0 | BRAF 0

N#Cc1ccc(-c2cnc3ccc(-c4ccc(C(=O)N5CCOCC5)cc4)cn23)cc1 (10 µM)
inactive: ABL1 = 0 | AKT1 = 0 | ALK 0 | ARAF 0 | AURKA 0 | AURKB 0 | AURKC 0 | BLK 0 | BMX 0 | BRAF 0

c1nc2c(NC3CCCCC3)nc(Nc3ccc(N4CCOCC4)cc3)nc2[nH]1 [Reversine] (10 µM)
inactive: ABL1 = 0 | AKT1 = 0 | ALK 0 | ARAF 0 | AURKA 0 | AURKB 0 | AURKC 0 | BLK 0 | BMX 0 | BRAF 0

C=CC(=O)N1CC[C@@H](Oc2nc(Nc3ccc(N4CCC(N5CCN(C)CC5)CC4)cc3)c(C(N)=O)nc2CC)C1 [Naquotinib (mesylate)] (2.5 µM)
inactive: ABL1 = 0 | AKT1 = 0 | ALK 0 | ARAF 0 | AURKA 0 | AURKB 0 | AURKC 0 | BLK 0 | BMX 0 | BRAF 0

O=c1c2c([nH]n1-c1nc3ccccc3s1)CCCC2 (10 µM)
inactive: ABL1 = 0 | AKT1 = 0 | ALK 0 | ARAF 0 | AURKA 0 | AURKB 0 | AURKC 0 | BLK 0 | BMX 0 | BRAF 0

COc1cc2ncnc(Nc3ccc(O)c(Br)c3)c2cc1OC (10 µM)
inactive: ABL1 = 0 | AKT1 = 0 | ALK 0 | ARAF 0 | AURKA 0 | AURKB 0 | AURKC 0 | BLK 0 | BMX 0 | BRAF 0

Cc1cnc(NC(=O)c2cc(Oc3cnc(C(=O)N(C)C)nc3)c3cc(C)oc3c2)cn1 (10 µM)
inactive: ABL1 = 0 | AKT1 = 0 | ALK 0 | ARAF 0 | AURKA 0 | AURKB 0 | AURKC 0 | BLK 0 | BMX 0 | BRAF 0

COc1ccc(-c2cc(=O)c3c(OC)cc(OC)c(OC)c3o2)cc1 [6-Demethoxytangeretin] (10 µM)
inactive: ABL1 = 0 | AKT1 = 0 | ALK 0 | ARAF 0 | AURKA 0 | AURKB 0 | AURKC 0 | BLK 0 | BMX 0 | BRAF 0

O=C(Nc1cccnc1)c1cc(-c2ccnc(F)c2)ccc1OCc1ccccc1 (10 µM)
inactive: ABL1 = 0 | AKT1 = 0 | ALK 0 | ARAF 0 | AURKA 0 | AURKB 0 | AURKC 0 | BLK 0 | BMX 0 | BRAF 0

2 neighbouring records out of the list so far, for reference:
Cc1cnc(NC(=O)c2cc(Oc3cnc(C(=O)N(C)C)nc3)c3cc(C)oc3c2)cn1 (10 µM)
inactive: ABL1 = 0 | AKT1 = 0 | ALK 0 | ARAF 0 | AURKA 0 | AURKB 0 | AURKC 0 | BLK 0 | BMX 0 | BRAF 0

COc1ccc(-c2cc(=O)c3c(OC)cc(OC)c(OC)c3o2)cc1 [6-Demethoxytangeretin] (10 µM)
inactive: ABL1 = 0 | AKT1 = 0 | ALK 0 | ARAF 0 | AURKA 0 | AURKB 0 | AURKC 0 | BLK 0 | BMX 0 | BRAF 0

(cont.)

N#Cc1ccc2ncnc(NCCc3ccccc3)c2c1 [Senexin A] (10 µM)
inactive: ABL1 = 0 | AKT1 = 0 | ALK 0 | ARAF 0 | AURKA 0 | AURKB 0 | AURKC 0 | BLK 0 | BMX 0 | BRAF 0

COc1cc(F)ccc1-c1ncnc(Nc2cccc(C[S@](C)(=N)=O)c2)n1 [Atuveciclib] (2.5 µM)
inactive: ABL1 = 0 | AKT1 = 0 | ALK 0 | ARAF 0 | AURKA 0 | AURKB 0 | AURKC 0 | BLK 0 | BMX 0 | BRAF 0

C=CC(=O)N1CCC[C@@H](n2nc(-c3ccc(Oc4ccccc4)cc3)c3c(N)n[nH]c(=O)c32)C1 [BTK inhibitor 17] (10 µM)
inactive: ABL1 = 0 | AKT1 = 0 | ALK 0 | ARAF 0 | AURKA 0 | AURKB 0 | AURKC 0 | BLK 0 | BMX 0 | BRAF 0

Cc1cccc(/C=N/Nc2cc(N3CCOCC3)n3nc(-c4ccncc4)cc3n2)c1 (10 µM)
inactive: ABL1 = 0 | AKT1 = 0 | ALK 0 | ARAF 0 | AURKA 0 | AURKB 0 | AURKC 0 | BLK 0 | BMX 0 | BRAF 0

CC(C)n1c([C@H](C)Nc2ncnc(N)c2C#N)cc2cccc(-c3ccc(=O)n(C)c3)c2c1=O (10 µM)
inactive: ABL1 = 0 | AKT1 = 0 | ALK 0 | ARAF 0 | AURKA 0 | AURKB 0 | AURKC 0 | BLK 0 | BMX 0 | BRAF 0

C[C@H]1O[C@@H](O[C@H]2CC[C@@]3(C)[C@@H](CC[C@]4(C)[C@@H]3C=C[C@]35OC[C@@]6(CCC(C)(C)C[C@H]63)[C@H](O)C[C@]54C)[C@]2(C)CO)[C@H](O)[C@@H](O[C@@H]2O[C@H](CO)[C@@H](O)[C@H](O)[C@H]2O)[C@H]1O [Saikosaponin D] (2.5 µM)
inactive: ABL1 = 0 | AKT1 = 0 | ALK 0 | ARAF 0 | AURKA 0 | AURKB 0 | AURKC 0 | BLK 0 | BMX 0 | BRAF 0

CO[C@H]1C[C@@H]2CC[C@@H](C)[C@@](O)(O2)C(=O)C(=O)N2CCCC[C@H]2C(=O)O[C@H]([C@H](C)C[C@@H]2CC[C@@H](OCCO)[C@H](OC)C2)CC(=O)[C@H](C)/C=C(\C)[C@@H](O)[C@@H](OC)C(=O)[C@H](C)C[C@H](C)/C=C/C=C/C=C/1C [Everolimus] (10 µM)
inactive: ABL1 = 0 | AKT1 = 0 | ALK 0 | ARAF 0 | AURKA 0 | AURKB 0 | AURKC 0 | BLK 0 | BMX 0 | BRAF 0

C=CC(=O)N1CCN(C(=O)CNc2cc(I)c(Cl)cc2O)CC1 [K-Ras(G12C) inhibitor 12] (10 µM)
inactive: ABL1 = 0 | AKT1 = 0 | ALK 0 | ARAF 0 | AURKA 0 | AURKB 0 | AURKC 0 | BLK 0 | BMX 0 | BRAF 0

NS(=O)(=O)c1ccc(Nc2nc(-c3cccc(-c4ccccc4)c3)c3[nH]cnc3n2)cc1 (10 µM)
inactive: ABL1 = 0 | AKT1 = 0 | ALK 0 | ARAF 0 | AURKA 0 | AURKB 0 | AURKC 0 | BLK 0 | BMX 0 | BRAF 0

O=C(Nc1cccc(-c2nc(-c3ccc(NC(=O)c4cccnc4)cc3Cl)no2)c1)Nc1ccc(NC(=O)C2CC2)c(C(F)(F)F)c1 (2.5 µM)
inactive: ABL1 = 0 | AKT1 = 0 | ALK 0 | ARAF 0 | AURKA 0 | AURKB 0 | AURKC 0 | BLK 0 | BMX 0 | BRAF 0

Cc1cc(O)c2c(c1)C(=O)c1cccc(O)c1C2=O [Chrysophanol] (2 µM)
inactive: ABL1 = 0 | AKT1 = 0 | ALK 0 | ARAF 0 | AURKA 0 | AURKB 0 | AURKC 0 | BLK 0 | BMX 0 | BRAF 0

Nc1nccc(-c2c(-c3ccc(F)cc3)ncn2C2CCCCC2)n1 (10 µM)
inactive: ABL1 = 0 | AKT1 = 0 | ALK 0 | ARAF 0 | AURKA 0 | AURKB 0 | AURKC 0 | BLK 0 | BMX 0 | BRAF 0

COC(=O)[C@H](CCSC)NC(=O)c1ccc(NC[C@@H](N)CS)cc1-c1ccccc1 [FTI-277 (hydrochloride)] (10 µM)
inactive: ABL1 = 0 | AKT1 = 0 | ALK 0 | ARAF 0 | AURKA 0 | AURKB 0 | AURKC 0 | BLK 0 | BMX 0 | BRAF 0
